Laboratory results taken from US9987242B2, “Treatment of Levodopa-induced Dyskinesias” (NORTHWESTERN UNIVERSITY, priority 2015, dated 2018).
For at least one compound, name, drawing or mass did not settle the structure.

Test system: dSPN glutamatergic synapses
Test: Spike-timing-dependent LTD induction (post-pre pairing) in dSPNs, ex vivo corticostriatal slices, perforated-patch or whole-cell recording
Format: cell-based, mice
Settings: physostigmine 10 μM co-applied with VU10010 5 μM; 20 repetitions
Source text: Male C57Bl/6 and FVB mice expressing tdTomato or eGFP under control of either the Drd1 or Drd2 receptor regulatory elements were used. All the mice used for the study were hemizygous for these transgenes. For some experiments, D1-tdTomato BAC mice were crossed with a transgenic line expressing Cre recombinase under control of the ChAT promoter. All mice were 8-10 weeks of age before stereotaxic surgery. Animal use procedures were reviewed and approved by the Northwestern Institutional Animal Care and Use Committee.
Slices were then transferred to a holding chamber containing aCSF. […]
All the recordings were made using a MultiClamp 700 A amplifier, and signals were filtered at 2 kHz and digitized at 10 kHz. […] Capacitance current was continuously monitored during perforation by applying a 5-10 mV pulse from a holding potential of −70 mV. The amplifier bridge circuit was adjusted to compensate for series resistance and continuously monitored during recordings. […]
Data analysis was conducted with Igor Pro 6 (Wavemetrics, Lake Oswego, Oreg.) and Clampfit 9 (Molecular Devices). EPSP amplitude was calculated from 50-60 sweeps immediately before the start of induction and 20-30 min after the end of induction. The change in EPSP amplitude was calculated by averaging EPSP values after the induction and normalized to the average baseline EPSP amplitude. Compiled data were expressed as mean±s.e.m. […]

CNC(=O)Oc1ccc2c(c1)[C@]1(C)CCN(C)[C@@H]1N2C [physostigmine]
LTD induction in dSPNs (EPSP amplitude): led to robust LTD induction
